Measured values from patent US20240216384A1, “COMPOSITION FOR PREVENTING OR TREATING METABOLIC DISEASES, CONTAINING TRICYCLO DERIVATIVE COMPOUND” (ONCOCROSS CO.,LTD., priority 2021, published 2024).
For at least one compound, name, drawing or mass did not settle the structure.

What was measured:
HepG2 cell line = test: Oleic acid-induced fat accumulation, Oil-Red O staining; assay type: cell-based; conditions: HepG2, high concentrations
Method: By treating the HepG2 cell line, a liver cancer cell line, with oleic acid, fat accumulation was induced into cells, and simultaneously, JPI-289 was treated together to identify the effect of JPI-289 on inhibiting fat accumulation using the Oil-Red O staining method. Herein, INT-747, a drug that succeeded in phase 3 clinical trials for NASH indication, was treated as a positive control group.

[1] = system: high-fat diet mouse model; test: High-fat diet animal model: body weight, liver size and weight; assay type: in vivo; conditions: 10 mpk, 6 weeks; compared to high-fat diet group
Method: A high-fat diet animal model was created, and after 6 weeks, JPI-289 (JPI) and a positive control group of INT-747 (INT) were administered for a total of 6 weeks (FIG. 12), and body weight, liver size, and weight were checked. As a result, weight loss was identified in the group administered 50 mpk of JPI-289 compared to the high-fat diet group and the INT-747 administration group (FIG. 13). In addition, compared to the high-fat diet group, liver size and weight were decreased in the JPI-289 10 mpk administration group, JPI-289 50 mpk administration group, and INT-747 10 mpk administration group.

## CC[C@H]1[C@@H](O)[C@@H]2[C@H](CC[C@]3(C)[C@@H]([C@H](C)CCC(=O)O)CC[C@@H]23)[C@@]2(C)CC[C@@H](O)C[C@@H]12 [INT-747, reference compound]
HepG2 cell line
  concentration dependence of fat accumulation inhibition: rather less effective in inhibiting fat accumulation at high concentrations
[1]
  liver size and weight: decreased
